# These are yes or no findings as the source states them, for the method shown. Binding seen in cells or lysates may run through a third protein. Some entries that bind do so weakly or less than the wild type. For part of these data: Sequences can lack the tags named with a protein.
# T1: GST-SUV39H1 (UniProt O43463)
# T1 sequence: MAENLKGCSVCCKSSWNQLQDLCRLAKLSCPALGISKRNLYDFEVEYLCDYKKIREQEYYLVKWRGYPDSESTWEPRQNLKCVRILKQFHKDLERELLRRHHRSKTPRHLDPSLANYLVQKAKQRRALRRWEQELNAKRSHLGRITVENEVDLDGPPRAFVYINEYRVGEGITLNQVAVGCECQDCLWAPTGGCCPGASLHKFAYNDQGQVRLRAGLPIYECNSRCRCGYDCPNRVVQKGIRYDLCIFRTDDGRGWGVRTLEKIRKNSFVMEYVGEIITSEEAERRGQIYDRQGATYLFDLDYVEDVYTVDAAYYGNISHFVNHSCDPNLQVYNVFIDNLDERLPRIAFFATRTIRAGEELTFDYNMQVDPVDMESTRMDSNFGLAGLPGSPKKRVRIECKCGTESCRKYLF
# T2: Kindlin-2 (mouse cardiac tissue) (mouse (endogenous in heart tissue)) (UniProt Q8CIB5)
# T2 sequence: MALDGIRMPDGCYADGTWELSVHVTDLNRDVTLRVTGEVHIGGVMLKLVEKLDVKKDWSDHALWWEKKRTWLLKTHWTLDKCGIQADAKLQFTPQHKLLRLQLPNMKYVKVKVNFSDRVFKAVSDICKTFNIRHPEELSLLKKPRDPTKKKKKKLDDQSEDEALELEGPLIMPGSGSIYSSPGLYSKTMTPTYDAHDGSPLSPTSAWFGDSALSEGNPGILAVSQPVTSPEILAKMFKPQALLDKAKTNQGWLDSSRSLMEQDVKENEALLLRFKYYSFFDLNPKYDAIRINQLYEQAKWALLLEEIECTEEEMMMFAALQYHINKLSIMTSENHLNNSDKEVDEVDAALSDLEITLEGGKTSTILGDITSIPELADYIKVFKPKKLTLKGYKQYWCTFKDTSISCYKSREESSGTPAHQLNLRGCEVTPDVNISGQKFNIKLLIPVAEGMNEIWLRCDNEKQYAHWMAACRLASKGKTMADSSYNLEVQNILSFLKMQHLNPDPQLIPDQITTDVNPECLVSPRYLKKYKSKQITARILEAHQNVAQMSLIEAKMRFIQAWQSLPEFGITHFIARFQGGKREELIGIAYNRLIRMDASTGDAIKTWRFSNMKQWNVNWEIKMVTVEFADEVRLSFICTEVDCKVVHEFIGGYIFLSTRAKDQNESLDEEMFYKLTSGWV
# What was measured:
# [1] = target: T1, GST-SUV39H1; assay: pull-down; purified GST-SUV39H1 on glutathione Sepharose 4B beads incubated with total lysates of HEK293A cells, 4 °C overnight; washed with TENT buffer (0.5% NP40, 20 mM Tris-HCl pH 7.4, 0.1 mM EDTA, 300 mM NaCl); western blot; only the target purified
# [2] = target: Kindlin-2 (human (endogenous in HEK293A)) (UniProt Q96AC1); assay: co-IP; HEK293A cell lysates; precipitated with anti-Kindlin-2 antibody, protein A/G agarose beads, western blot
# [3] = target: T2, Kindlin-2 (mouse cardiac tissue) (mouse (endogenous in heart tissue)); assay: co-IP; lysates from heart tissue of wild-type mice; anti-Kindlin-2 and anti-SUV39H1 antibodies, 4 °C overnight, protein A/G agarose beads, NP40 buffer washes, western blot
molecule,measurement,setting,value
Kindlin-2 (from UniProt Q96AC1 1-680),binding,[1],binds
"histone methyltransferase supperssor of variegation3-9 homolog1 (SUV39H1) (protein, UniProt O43463 1-412) MAENLKGCSVCCKSSWNQLQDLCRLAKLSCPALGISKRNLYDFEVEYLCDYKKIREQEYYLVKWRGYPDSESTWEPRQNLKCVRILKQFHKDLERELLRRHHRSKTPRHLDPSLANYLVQKAKQRRALRRWEQELNAKRSHLGRITVENEVDLDGPPRAFVYINEYRVGEGITLNQVAVGCECQDCLWAPTGGCCPGASLHKFAYNDQGQVRLRAGLPIYECNSRCRCGYDCPNRVVQKGIRYDLCIFRTDDGRGWGVRTLEKIRKNSFVMEYVGEIITSEEAERRGQIYDRQGATYLFDLDYVEDVYTVDAAYYGNISHFVNHSCDPNLQVYNVFIDNLDERLPRIAFFATRTIRAGEELTFDYNMQVDPVDMESTRMDSNFGLAGLPGSPKKRVRIECKCGTESCRKYLF",binding,[2],binds
"SUV39H1 (mouse cardiac tissue) (protein, UniProt O54864 1-412) MAENLKGCSVCCKSSWNQLQDLCRLAKLSCPALGVSKKNLYDFEVEYLCDYKKIREQEYYLVKWRGYPDSENTWEPRQNLKCIRVLKQFHKDLERELVRRHRRSKPPRHLDPNLANYLVQKAKQRRALQRWEQELNAKRSHLGRITVENEVDLDGPPRSFVYINEYRVGEGITLNQVAVGCECQDCLLAPTGGCCPGASLHKFAYNDQGQVRLKAGQPIYECNSRCCCGYDCPNRVVQKGIRYDLCIFRTNDGRGWGVRTLEKIRKNSFVMEYVGEIITSEEAERRGQIYDRQGATYLFDLDYVEDVYTVDAAYYGNISHFVNHSCDPNLQVYNVFIDNLDERLPRIAFFATRTIWAGEELTFDYNMQVDPVDMESTRMDSNFGLAGLPGSPKKRVRIECKCGTTACRKYLF",binding,[3],binds

# Source: article PMC6877536
